Laboratory results reported in the supplement of paper PMC12067093, “Discovery and optimisation of a covalent ligand for TRIM25 and its application to targeted protein ubiquitination” (Chemical Science, 2025).
The other results are listed elsewhere or left out.

Compound: Cc1cc(ccc1-c1ccccc1)C(=O)N1CCCN(CC1)C(=O)CCl [compound 10]
Test: probe-labelled cysteine peptide fold change vs DMSO (competition) (log2 fold change); higher = less target engagement (more negative = stronger competition)
Settings: THP-1, incubation time: 4 h
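Also: competitive profiling in live THP-1 cells: cysteine peptides tagged with an iodoacetamide desthiobiotin (IA-DTB) probe, intensity after compound treatment relative to DMSO-treated cells.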

| Target | probe-labelled cysteine peptide fold change (10 µM) | probe-labelled cysteine peptide fold change (50 µM) |
| --- | --- | --- |
| KTN1_Q86UP2_1105_ECMAGTSGSEEVK (UniProt Q86UP2) | -0.0527 | -0.372 |
| LCOR_Q96JN0-3_968_NAHIPSESIACK (UniProt Q96JN0) | -0.159 | -0.217 |
| KYNU_Q16719_401_GCQLTITFSVPNK (UniProt Q16719) | 0.17 | 0.0566 |
| KYAT3_Q6YP21_337_RMDDPECYFNSLPK (UniProt Q6YP21) | -0.0175 | -0.0756 |
| KMT2C_Q8NEZ4_4403_CCFCHEEGDGLTDGPAR (UniProt Q8NEZ4) | -0.034 | 0.0495 |
| LARS_Q9P2J5_248_DGQPCMDHDR (UniProt Q9P2J5) | -0.00101 | 0.12 |
| KNL1_Q8NG31_253_CSAFPDVPDK (UniProt Q8NG31) | -0.0817 | -0.952 |
| KMT5C_Q86Y97_231_NEHCECHTCER (UniProt Q86Y97) | 0.585 | 0.831 |
| KMT2B_Q9UMN6_1447_QLHPGPCGLQAVSQR (UniProt Q9UMN6) | 0.0605 | -0.028 |
| L3HYPDH_Q96EM0_137+148_VNIHCPCGLVTAFVACEDGR (UniProt Q96EM0) | 0.107 | -0.514 |
| LDLR_P01130_34_NEFQCQDGK (UniProt P01130) | -0.0424 | 0.0111 |
| KMT2D_O14686_414_EPGPLQCEAK (UniProt O14686) | -0.276 | -0.348 |
| LENG8_Q96PV6_500_MAALECEDPER (UniProt Q96PV6) | -0.193 | -0.0815 |
| KMT2B_Q9UMN6_1749_IDSLGTLSDLSDCEGR (UniProt Q9UMN6) | -0.0799 | 0.192 |
| KIF3A_Q9Y496_230_SHAIFTITIECSEK (UniProt Q9Y496) | -0.0999 | 0.132 |
| LCP1_P13796_101_EGICAIGGTSEQSSVGTQHSYSEEEK (UniProt P13796) | -0.236 | -0.201 |
| LAS1L_Q9Y4W2_306_VECVLAELK (UniProt Q9Y4W2) | -0.217 | -0.525 |
| LANCL1_O43813_108_SITFLCGDAGPLAVAAVLYHK (UniProt O43813) | -0.0705 | 0.01 |
| KLHL15_Q96M94_588_LDGLQVCNLHFPDYVLDEVRR (UniProt Q96M94) | 0.111 | -0.0682 |
| LAP3_P28838_129_AAVAAGCR (UniProt P28838) | -0.15 | 0.0259 |
| KPNB1_Q14974_158_ESTLEAIGYICQDIDPEQLQDK (UniProt Q14974) | 0.247 | 0.121 |
| LANCL2_Q9NS86_169_SDCESQECVTK (UniProt Q9NS86) | 0.142 | -0.125 |

| Target | probe-labelled cysteine peptide fold change (10 µM) | probe-labelled cysteine peptide fold change (50 µM) |
| --- | --- | --- |
| LACTB2_Q53H82_58_ILIDTGEPAIPEYISCLK (UniProt Q53H82) | 0.2 | 0.0902 |
| KLHL42_Q9P2K6_399_QQMVSVEETIYIVGGCLHELGPNRR (UniProt Q9P2K6) | 0.305 | 0.379 |
| KLHL8_Q9P2G9_590_IFAVGGHNGNAYLNTVEAFDPVLNRWELVGSVSHCR (UniProt Q9P2G9) | 0.34 | 0.184 |
| KPNA6_O60684_253_VSPCLPVLSR (UniProt O60684) | 0.0596 | -0.236 |
| KIF2A_O00139_159_KSNCVK (UniProt O00139) | -0.438 | -0.822 |
| LDAH_Q9H6V9_274_LTFYYGTIDPWCPK (UniProt Q9H6V9) | -0.145 | -0.0225 |
| LCP1_P13796_336_EKDDIQRAECMLQQAER (UniProt P13796) | -0.365 | -0.856 |
| KIF23_Q02241_412_MIVCVNPK (UniProt Q02241) | 0.53 | -0.0803 |
| KNL1_Q8NG31_1301_AQVESCQLNNR (UniProt Q8NG31) | -0.271 | -0.49 |
| LARP1_Q6PKG0_864_TASISSSPSEGTPTVGSYGCTPQSLPK (UniProt Q6PKG0) | -0.118 | -0.45 |
| LCP1_P13796_206_KLTPFTIQENLNLALNSASAIGCHVVNIGAEDLK (UniProt P13796) | -0.293 | -0.296 |
| KLC1_Q07866_236_YEVAVPLCK (UniProt Q07866) | 0.0617 | -0.0397 |
| LARP1B_Q659C4_649_HSTNPPLECHVGWVMDSR, A0A3B3ISF0+Q659C4 | 0.0444 | 0.0204 |
| LAMC1_P11047_477_CKPGFFNLESSNPR (UniProt P11047) | 0.00393 | -0.0442 |
| KLC3_Q6P597_314_EAEPLCQR (UniProt Q6P597) | 0.0555 | -0.222 |
| LAMTOR5_O43504_23+33_NPSIVGVLCTDSQGLNLGCR (UniProt O43504) | 0.414 | 0.264 |
| KTN1_Q86UP2_1136_EADEMHTLLQLECEK (UniProt Q86UP2) | 0.171 | 0.315 |
| LCMT1_Q9UIC8_136_CKPPLSSPILELHSEDTLQMDGHILDSKR (UniProt Q9UIC8) | -0.102 | -0.544 |
| L3HYPDH_Q96EM0_205_LGLDICSAK (UniProt Q96EM0) | 0.162 | -0.0398 |
| KLC1_Q07866_559_ASFCGK (UniProt Q07866) | -0.226 | -0.512 |
| LAMTOR5_O43504_33_NPSIVGVLCTDSQGLNLGCR (UniProt O43504) | 0.116 | -0.26 |
| LARS_Q9P2J5_573_RNFEATLGWLQEHACSR (UniProt Q9P2J5) | -0.0392 | 0.208 |

| Target | probe-labelled cysteine peptide fold change (10 µM) | probe-labelled cysteine peptide fold change (50 µM) |
| --- | --- | --- |
| KLHL20_Q9Y2M5_356_CGVGVSVLDDLLYAVGGHDGSSYLNSVER (UniProt Q9Y2M5) | 0.0197 | -0.33 |
| KLHL22_Q53GT1_572+589_DCWEEGPQLDNSISGLAACVLTLPR (UniProt Q53GT1) | -0.193 | 0.316 |
| LAP3_P28838_462_SAGACTAAAFLK (UniProt P28838) | -0.151 | -0.0706 |
| KRAS_P01116_118_CDLPSR (UniProt P01116) | -0.137 | -0.146 |
| LCORL_Q8N3X6_193_NGSIGPSIVCK (UniProt Q8N3X6) | -0.113 | -0.18 |
| KLHL7_Q8IXQ5_259_TVQAEPLIQDNPECLK (UniProt Q8IXQ5) | 0.232 | -0.0285 |
| LACTB2_Q53H82_58_RILIDTGEPAIPEYISCLK (UniProt Q53H82) | -0.124 | -0.253 |
| KIFC1_Q9BW19_485_KGQGGECEIR (UniProt Q9BW19) | 0.112 | 0.254 |
| KIFC1_Q9BW19_212_ACVLELEER (UniProt Q9BW19) | 0.0436 | 0.158 |
| LARP4B_Q92615_590_EPSVPASCAVSATYER (UniProt Q92615) | -0.245 | -0.00819 |
| LCMT1_Q9UIC8_316+318_HYCLCWATK (UniProt Q9UIC8) | 0.146 | -0.518 |
| LAP3_P28838_335_LNLPINIIGLAPLCENMPSGK (UniProt P28838) | -0.142 | -0.0472 |
| LDHD_Q86WU2_462_ALALHGTCTGEHGIGMGK (UniProt Q86WU2) | -0.0481 | -0.116 |
| LDHA_P00338_131_YSPNCK (UniProt P00338) | 0.0316 | 0.172 |
| KIF5B_P33176_632_ELAACQLR (UniProt P33176) | -0.00725 | -0.0173 |
| LAMTOR2_Q9Y2Q5_92_VANLLLCMYAK (UniProt Q9Y2Q5) | 0.151 | 0.282 |
| LDHD_Q86WU2_384_HNAWYAALATRPGCK (UniProt Q86WU2) | -0.154 | -0.394 |
| KIF4A_O95239_269_GLLCLGNVISALGDDKK (UniProt O95239) | -0.141 | -0.159 |
| LAMP1_P11279_338_CNAEEHVR (UniProt P11279) | -0.214 | 0.0965 |
| KLHL7_Q8IXQ5_44_TLCDVILMVQER (UniProt Q8IXQ5) | 0.233 | 0.388 |
| L3HYPDH_Q96EM0_39_IVLAGCPEVSGPTLLAK (UniProt Q96EM0) | -0.0329 | 0.075 |
| KLC2_Q9H0B6_474_LEAAHTLEDCASR (UniProt Q9H0B6) | -0.0332 | -0.246 |

| Target | probe-labelled cysteine peptide fold change (10 µM) | probe-labelled cysteine peptide fold change (50 µM) |
| --- | --- | --- |
| KLC4_Q9NSK0_489_LEAAETLEECALR (UniProt Q9NSK0) | -0.0912 | 0.046 |
| KPNB1_Q14974_228_HFIMQVVCEATQCPDTR (UniProt Q14974) | 0.0691 | 0.14 |
| KIF5B_P33176_421_KCEEEIAK (UniProt P33176) | 0.0723 | -0.125 |
| LARS_Q9P2J5_92_CCLFPFGLHCTGMPIK (UniProt Q9P2J5) | -0.106 | -0.288 |
| KLHDC4_Q8TBB5_58_TQTVELPCPPPSPR (UniProt Q8TBB5) | 0.013 | 0.0378 |
| KTI12_Q96EK9_107_TPLCLVYCVRPGGPIAGPQVAGANENPGR (UniProt Q96EK9) | -0.0222 | -0.161 |
| LCP1_P13796_101_KEGICAIGGTSEQSSVGTQHSYSEEEK (UniProt P13796) | -0.345 | -0.236 |
| LARP4_Q71RC2_76_EYEVMYSSSCETTR (UniProt Q71RC2) | -0.125 | 0.00753 |
| LCMT1_Q9UIC8_250_QCDLAGVETCK (UniProt Q9UIC8) | 0.0905 | -0.147 |
| KLHL11_Q9NVR0_526_AVITCYDTETR (UniProt Q9NVR0) | 0.05 | -0.00351 |
| KNTC1_P50748_911_IIDLIDREQGEDCLLLLK (UniProt P50748) | 0.188 | 0.133 |
| KLHL26_Q53HC5_38_CTFSAPSHSTSLLQGLATLR (UniProt Q53HC5) | -0.0538 | -0.00127 |
| KPNA4_O00629_122_SGILPILVHCLER (UniProt O00629) | 0.21 | 0.372 |
| KLC1_Q07866_349_QLNNLALLCQNQGK (UniProt Q07866) | 0.114 | 0.0215 |
| L3MBTL2_Q969R5_531_LFNMDCPNHGFK (UniProt Q969R5) | -0.147 | -0.344 |
| KLHL26_Q53HC5_383_SGEGAVDACYR (UniProt Q53HC5) | 0.0982 | 0.0933 |
| KPTN_Q9Y664_221_RLSALGCQSGYVR (UniProt Q9Y664) | -0.0575 | 0.21 |
| LEMD3_Q9Y2U8_814_CSDNDGIVHIAVDK (UniProt Q9Y2U8) | 0.0911 | -0.0634 |
| KLHL26_Q53HC5_603_DLHFPESFAGIACAPVLLPR (UniProt Q53HC5) | -0.0715 | -0.178 |
